Reference: patent US12239635B2, “Treatment of cognitive disorders using nitazoxanide (NTZ), nitazoxanide (NTZ) analogs, and metabolites thereof” (The Trustees of Columbia University in the City of New York, priority 2018, dated 2025)
“Also recorded” adds a separate entry of the source. For at least one compound, name, drawing or mass did not settle the structure.

Assays:
[1] = tested on: Tg2576 mouse model of Alzheimer's disease; assay: Two-day radial arm water maze (RAWM) and visible platform swim speed, Nitazoxanide via oral gavage; assay type: in vivo; details: Tg2576 mice aged 7-10 months; 100 mg/kg/day oral gavage in 0.5% CMC for 14 days and throughout testing
[2] = tested on: Tg2576 mouse model of Alzheimer's disease; assay: Two-day radial arm water maze (RAWM) and visible platform swim speed, Nitazoxanide in chow; assay type: in vivo; details: Tg2576 mice aged 7-10 months

CC(=O)Oc1ccccc1C(=O)Nc1ncc([N+](=O)[O-])s1 [Nitazoxanide (NTZ), [2-[(5-nitro-1,3-thiazol-2-yl)carbamoyl]phenyl]ethanoate]
Errors in radial arm water maze (spatial working memory) [1]: performed similarly to WT mice, making significantly fewer errors than control-treated transgenic mice
Errors in radial arm water maze (spatial working memory) ([2]; 40 mg/kg/day via chow for 3 months, 40 mg/kg/day): performed similarly to WT mice, making significantly fewer errors than control-treated transgenic mice; also recorded: effective to improve cognitive performance
Errors in radial arm water maze (spatial working memory) ([2]; 400 mg/kg/day via chow for 3 months, 400 mg/kg/day): performed similarly to control-treated transgenic mice and not
